{"source": "patent US20240207282A1", "about": "“METHOD OF INCREASING CHAPERONE MEDIATED AUTOPHAGY BY STABILIZING THE INTERACTION OF RETINOIC ACID RECEPTOR-ALPHA AND AN INHIBITOR” (ALBERT EINSTEIN COLLEGE OF MEDICINE, priority 2021, published 2024)", "origin": "cited, not measured here", "test_system": "NIH3T3 cells", "settings": "% CMA of AR7; previously reported; cited from earlier work", "note": "Some entries share one result that the patent states for a list of compounds.", "data": [{"compound": "Clc1ccc2c(c1)OCC(c1ccc(-c3ccccc3)cc1)=N2", "note": "[CA39]", "values": [{"measurement": "CMA activation relative to AR7", "result": "> 40", "unit": "%"}]}]}
